Values from PubChem BioAssay AID504804 (Drosophila RNAi Screening Center, 2011)

- Aim: 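dsRNAs that improve Kc cell survival under doxorubicin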 (primary screen)
- System: Drosophila Kc cells
- Reagents: long dsRNA against Drosophila genes, 0.5 µg dsRNA per well
- Time to read-out: 96 h (48 h knock-down, then 48 h drug)
- Challenge: doxorubicin 5 µg/ml for 48 h, added 48 h after dsRNA
- Measured: 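Viability measured as cellular ATP by luminescence after 48 h knock-down then 48 h doxorubicin at 5 µg/ml; unnormalised plate counts for each replicate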
- Direction: raw ATP luminescence: higher = more viable cells, protection from doxorubicin
- Hit rule: 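Active when both duplicate wells lie at least 2 SD above the plate mean and protection is confirmed by rescreening and independent dsRNAs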
The screen tested about 19,000 reagents; below is an unselected part of those that have a named target and a result. Of all reagents, 47 (0.25%) got an active call. 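Signals are raw, not normalised; exact z-scores behind calls not deposited; actives needed confirmation, so some wells reaching 2 SD are inactive.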 A number with no mark means an inactive call.

gene knocked down	amplicon	SD above plate mean	raw ATP luminescence, replicate 1	raw ATP luminescence, replicate 2
mi (GeneID 37723)	DRSC04498		84433	51647
CG8997 (GeneID 34799)	DRSC01900		70807	75140
CG33332 (GeneID 2768669)	DRSC15504		75210	62410
CG12402 (GeneID 41714)	DRSC14508		80260	90170
ND-18 (GeneID 32936)	DRSC19441		2.51e5	2.55e5
Yod1 (GeneID 38603)	DRSC10433	2 to 3 SD above plate mean	89333	63203
CG10038 (GeneID 41495)	DRSC14178		68107	37997
CG4151 (GeneID 31465)	DRSC18351		26370	36390
Ret (GeneID 43875)	DRSC03409		82547	71793
Ret (GeneID 43875)	DRSC03410		63973	46993
Fip1 (GeneID 40569)	DRSC12147		21563	22967
bw (GeneID 37724)	DRSC04005		96967	1.01e5
bw (GeneID 37724)	DRSC04677		66627	59937
Su(var)3-9 (GeneID 41483)	DRSC14484		47270	53237
HDAC3 (GeneID 44446)	DRSC12352		52617	30333
CG16970 (retired record) (GeneID 34740)	DRSC01310		2.95e5	3.15e5
CG16970 (retired record) (GeneID 34740)	DRSC02549		32227	49773
CG1428 (GeneID 35433)	DRSC03708		63407	61277
Usp14 (GeneID 34387)	DRSC02853		75170	63477
CG13917 (GeneID 38186)	DRSC08386		53413	58687
t-Grip128 (GeneID 317930)	DRSC07853		1.53e5	1.58e5
Slbp (GeneID 43448)	DRSC16863		36670	41280
side-II (GeneID 3346206)	DRSC01427		3.54e5	2.98e5
side-II (GeneID 3346206)	DRSC01429		3.63e5	2.99e5
side-II (GeneID 3346206)	DRSC01913		56367	66087
side-II (GeneID 3346206)	DRSC01932		57617	90863
side-II (GeneID 3346206)	DRSC02480		44920	81670
Atet (GeneID 33636)	DRSC00263		19473	18880
CG14795 (GeneID 31109)	DRSC18513		35920	35330
CG12895 (GeneID 36103)	DRSC06210		59020	75717
CG14439 (GeneID 31614)	DRSC17931		43720	42530
DIP-zeta (GeneID 34231)	DRSC02203		49770	85077
DIP-zeta (GeneID 34231)	DRSC02204		44053	87060
DIP-zeta (GeneID 34231)	DRSC02205		52950	73540

Quoted from the entries so far for reference:
gene knocked down	amplicon	SD above plate mean	raw ATP luminescence, replicate 1	raw ATP luminescence, replicate 2
DIP-zeta (GeneID 34231)	DRSC02203		49770	85077
DIP-zeta (GeneID 34231)	DRSC02204		44053	87060
